Results are given in words; binding and its absence hold for the method and conditions named. Binding seen in cells or lysates may run through a third protein. These calls come from enrichment with a bait or labelling near it, and not all partners need be listed. Tags and fused reporters may be left off the sequences shown.
Target: T1, GST-annexin A6 fusion protein, full length (UniProt P48037)
T1 sequence: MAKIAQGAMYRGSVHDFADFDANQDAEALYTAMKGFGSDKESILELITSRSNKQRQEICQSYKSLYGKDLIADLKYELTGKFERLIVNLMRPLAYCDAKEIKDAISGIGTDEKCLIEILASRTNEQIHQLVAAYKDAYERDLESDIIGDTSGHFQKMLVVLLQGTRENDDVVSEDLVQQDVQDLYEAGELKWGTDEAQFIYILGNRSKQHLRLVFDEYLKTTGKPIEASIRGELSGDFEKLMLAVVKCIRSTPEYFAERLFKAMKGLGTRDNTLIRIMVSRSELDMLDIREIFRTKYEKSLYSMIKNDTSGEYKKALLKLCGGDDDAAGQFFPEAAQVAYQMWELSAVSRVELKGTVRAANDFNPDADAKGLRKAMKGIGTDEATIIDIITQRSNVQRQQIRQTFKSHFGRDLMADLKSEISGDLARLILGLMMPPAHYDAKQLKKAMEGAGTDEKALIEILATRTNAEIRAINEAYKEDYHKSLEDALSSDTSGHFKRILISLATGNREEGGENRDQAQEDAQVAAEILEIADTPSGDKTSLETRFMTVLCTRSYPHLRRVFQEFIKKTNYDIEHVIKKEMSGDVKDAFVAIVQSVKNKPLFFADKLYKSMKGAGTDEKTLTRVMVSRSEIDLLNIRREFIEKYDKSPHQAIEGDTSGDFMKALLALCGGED
Assay: affinity purification with mass spectrometry; GST-AnxA6 on glutathione-sepharose 4B beads incubated with 1.5 mg NP-40 solubilised rat whole heart homogenate, 4°C, 5 hours; bound proteins eluted, separated by 12% SDS-PAGE, LC MS/MS; only the target purified

binding: binds
Substance: sarcomeric alpha-actinin (rat (endogenous in heart homogenate))

Source: paper PMC3037912
